Measured values reported in US10370433B2, “Compositions and methods for diagnosis and treatment of cancer” (BIONTECH AG, priority 2015, dated 2019).
Where two headings read alike, the source gives them in different places. For some assays here: Part of at least one peptide drawing is inferred or uncertain, most often the ends. For some assays here: At least one structure is not confirmed: it was looked up by name or label, or the drawing left a doubt. Positions of bridges follow the written chain, without caps; N, C: chain ends. Residues, ends and D or L forms follow the SMILES beside them.

Experiments:
[1] = target: T1, recombinant human Seprase (rhuSeprase) (Homo sapiens, UniProt Q12884); test: Surface plasmon resonance (Biacore T100) on immobilized rhuSeprase; format: binding
T1 construct: named pCEP4-IgKappa-huSeprase-coCHO_26-760aa-H6 and used for the generation of recombinant soluble human Seprase (rhuSeprase); mouse Ig kappa-chain V-J2-C secretion signal (N, cleaved yes); made in house; host or cells: FreeStyle CHO-S cells (transient transfection; purified from supernatant by Ni-chelate and SEC)
T1 sequence (Q12884 26-760): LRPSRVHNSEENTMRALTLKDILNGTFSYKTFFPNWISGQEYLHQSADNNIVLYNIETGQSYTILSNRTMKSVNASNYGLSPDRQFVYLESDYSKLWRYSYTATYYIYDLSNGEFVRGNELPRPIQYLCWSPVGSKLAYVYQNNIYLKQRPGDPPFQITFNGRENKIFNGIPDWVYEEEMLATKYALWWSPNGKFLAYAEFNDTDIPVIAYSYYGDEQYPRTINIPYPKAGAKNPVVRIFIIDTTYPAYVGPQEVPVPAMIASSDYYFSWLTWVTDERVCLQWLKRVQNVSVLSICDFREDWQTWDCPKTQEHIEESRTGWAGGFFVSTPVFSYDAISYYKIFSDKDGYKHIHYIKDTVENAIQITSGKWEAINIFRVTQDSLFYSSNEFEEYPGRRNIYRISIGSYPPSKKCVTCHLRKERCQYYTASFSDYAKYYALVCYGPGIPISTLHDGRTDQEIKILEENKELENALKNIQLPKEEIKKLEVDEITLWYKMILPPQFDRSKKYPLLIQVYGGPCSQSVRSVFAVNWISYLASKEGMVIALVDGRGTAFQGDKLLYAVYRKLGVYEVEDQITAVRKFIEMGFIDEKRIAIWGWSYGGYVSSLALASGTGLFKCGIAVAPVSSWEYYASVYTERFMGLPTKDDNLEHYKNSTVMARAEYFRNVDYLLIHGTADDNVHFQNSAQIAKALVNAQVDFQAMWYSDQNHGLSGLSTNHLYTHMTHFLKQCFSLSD

CHO-K1-huSeprase cells = target: T2, CHO-K1-huSeprase cells (Homo sapiens, UniProt Q12884); format: cell-based
T2 construct: expressed in transfected cells; host or cells: CHO-K1 (PiggyBac transposon, EF1 alpha promoter, IRES-EGFP, hygromycin selection)
T2 sequence (Q12884 1-760): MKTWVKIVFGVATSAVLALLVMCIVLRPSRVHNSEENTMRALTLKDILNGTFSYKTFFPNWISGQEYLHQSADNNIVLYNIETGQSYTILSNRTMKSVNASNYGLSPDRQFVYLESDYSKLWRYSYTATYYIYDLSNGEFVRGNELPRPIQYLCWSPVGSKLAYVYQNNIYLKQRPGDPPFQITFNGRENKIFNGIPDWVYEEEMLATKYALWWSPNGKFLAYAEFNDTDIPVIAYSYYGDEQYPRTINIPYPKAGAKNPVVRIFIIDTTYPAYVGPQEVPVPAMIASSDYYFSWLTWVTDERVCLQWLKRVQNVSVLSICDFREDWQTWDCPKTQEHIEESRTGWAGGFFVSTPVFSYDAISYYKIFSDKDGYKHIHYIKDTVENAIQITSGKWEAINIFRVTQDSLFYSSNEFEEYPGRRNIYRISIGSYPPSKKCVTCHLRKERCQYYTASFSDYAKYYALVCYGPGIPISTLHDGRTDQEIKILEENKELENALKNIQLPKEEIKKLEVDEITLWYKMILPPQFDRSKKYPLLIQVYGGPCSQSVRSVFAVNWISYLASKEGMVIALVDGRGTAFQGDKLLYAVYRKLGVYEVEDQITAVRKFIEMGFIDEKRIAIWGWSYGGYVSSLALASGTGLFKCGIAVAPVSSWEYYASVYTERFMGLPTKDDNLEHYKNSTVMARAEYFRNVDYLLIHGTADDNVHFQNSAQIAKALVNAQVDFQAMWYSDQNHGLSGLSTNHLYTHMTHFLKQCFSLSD

[2] = target: T3, Seprase-expressing triple negative breast cancer (TNBC) sections (Homo sapiens, UniProt Q12884); test: Immunofluorescence staining of TNBC sections
T3 construct: indicating the specific targeting of Seprase on CAFs; from tissue; host or cells: cryosections of triple negative breast cancer tissue
T3 sequence (Q12884 1-760): T2 sequence (Q12884 1-760)

CC[C@H](C)[C@@H]1NC(=O)[C@@H]2CSSC[C@H](NC(=O)[C@H](C)NC(=O)CNC(=O)[C@H](CO)NC(=O)CNC(=O)CON=CC(=O)NCCCC[C@H](NC(=O)[C@H](CO)NC(=O)CNC(=O)[C@H](CO)NC(=O)CNC(=O)[C@H](CCCCNC(=O)C=NOCC(=O)NCC(=O)N[C@@H](CO)C(=O)NCC(=O)N[C@@H](C)C(=O)N[C@H]3CSSC[C@@H]4NC(=O)[C@H](CCCNC(=N)N)NC(=O)CNC(=O)[C@@H]5CCCN5C(=O)[C@@H]5CSSC[C@@H](C(=O)NCC(=O)O)NC(=O)[C@H](Cc6ccc(O)cc6)NC(=O)CNC(=O)[C@H](CC(N)=O)NC(=O)CNC(=O)[C@H](CCCNC(=N)N)NC(=O)[C@H](CSSC[C@H](NC(=O)[C@H](CC(=O)O)NC(=O)[C@@H]6CCCN6C(=O)CNC(=O)[C@H](CCCNC(=N)N)NC(=O)CNC(=O)[C@@H]6CCCN6C(=O)[C@H]([C@@H](C)O)NC(=O)[C@H](Cc6c[nH]c7ccccc67)NC(=O)[C@H](CC(N)=O)NC(=O)[C@H](CO)NC(=O)[C@H](Cc6ccc(O)cc6)NC(=O)[C@@H]6CCCN6C3=O)C(=O)N[C@@H](CCCNC(=N)N)C(=O)N[C@@H](CCCNC(=N)N)C(=O)N[C@@H](CC(=O)O)C(=O)N[C@@H](CO)C(=O)N[C@@H](CC(=O)O)C(=O)N5)NC(=O)[C@H]([C@@H](C)CC)NC4=O)NC(=O)[C@H](CO)NC(=O)CNC(=O)[C@H](CO)NC(=O)CNC(=O)[C@H](CCCCNC(=O)C=NOCC(=O)NCC(=O)N[C@@H](CO)C(=O)NCC(=O)N[C@@H](C)C(=O)N[C@H]3CSSC[C@@H]4NC(=O)[C@H](CCCNC(=N)N)NC(=O)CNC(=O)[C@@H]5CCCN5C(=O)[C@@H]5CSSC[C@@H](C(=O)NCC(=O)O)NC(=O)[C@H](Cc6ccc(O)cc6)NC(=O)CNC(=O)[C@H](CC(N)=O)NC(=O)CNC(=O)[C@H](CCCNC(=N)N)NC(=O)[C@H](CSSC[C@H](NC(=O)[C@H](CC(=O)O)NC(=O)[C@@H]6CCCN6C(=O)CNC(=O)[C@H](CCCNC(=N)N)NC(=O)CNC(=O)[C@@H]6CCCN6C(=O)[C@H]([C@@H](C)O)NC(=O)[C@H](Cc6c[nH]c7ccccc67)NC(=O)[C@H](CC(N)=O)NC(=O)[C@H](CO)NC(=O)[C@H](Cc6ccc(O)cc6)NC(=O)[C@@H]6CCCN6C3=O)C(=O)N[C@@H](CCCNC(=N)N)C(=O)N[C@@H](CCCNC(=N)N)C(=O)N[C@@H](CC(=O)O)C(=O)N[C@@H](CO)C(=O)N[C@@H](CC(=O)O)C(=O)N5)NC(=O)[C@H]([C@@H](C)CC)NC4=O)NC(=O)[C@H](CO)NC(=O)CNC(=O)[C@H](CO)NC(=O)CNC(=O)CN3CCN(CC(=O)O)CCN(CC(=O)O)CCN(CC(=O)O)CC3)C(=O)O)C(=O)N3CCC[C@H]3C(=O)N[C@@H](Cc3ccc(O)cc3)C(=O)N[C@@H](CO)C(=O)N[C@@H](CC(N)=O)C(=O)N[C@@H](Cc3c[nH]c4ccccc34)C(=O)N[C@@H]([C@@H](C)O)C(=O)N3CCC[C@H]3C(=O)NCC(=O)N[C@@H](CCCNC(=N)N)C(=O)NCC(=O)N3CCC[C@H]3C(=O)N[C@@H](CC(=O)O)C(=O)N[C@H]3CSSC[C@H](NC1=O)C(=O)N[C@@H](CCCNC(=N)N)C(=O)NCC(=O)N[C@@H](CC(N)=O)C(=O)NCC(=O)N[C@@H](Cc1ccc(O)cc1)C(=O)N[C@H](C(=O)NCC(=O)O)CSSC[C@H](NC(=O)[C@H](CC(=O)O)NC(=O)[C@H](CO)NC(=O)[C@H](CC(=O)O)NC(=O)[C@H](CCCNC(=N)N)NC(=O)[C@H](CCCNC(=N)N)NC3=O)C(=O)N1CCC[C@H]1C(=O)NCC(=O)N[C@@H](CCCNC(=N)N)C(=O)N2 (single isomer, unassigned) [DOTA-(MC-FA-012)3]
Kd [1]: 0.0124 nM | Kd ([1]; read-out: KD (M, steady state)): 0.249 nM | Kd ([1]; read-out: dissociation constant (steady state analysis)): 0.249 nM

CC[C@H](C)[C@@H]1NC(=O)[C@@H]2CSSC[C@H](NC(=O)[C@H](C)NC(=O)CN)C(=O)N3CCC[C@H]3C(=O)N[C@@H](Cc3ccc(O)cc3)C(=O)N[C@@H](CO)C(=O)N[C@@H](CC(N)=O)C(=O)N[C@@H](Cc3c[nH]c4ccccc34)C(=O)N[C@@H]([C@@H](C)O)C(=O)N3CCC[C@H]3C(=O)NCC(=O)N[C@@H](CCCNC(=N)N)C(=O)NCC(=O)N3CCC[C@H]3C(=O)N[C@@H](CC(=O)O)C(=O)N[C@H]3CSSC[C@H](NC1=O)C(=O)N[C@@H](CCCNC(=N)N)C(=O)NCC(=O)N[C@@H](CC(N)=O)C(=O)NCC(=O)N[C@@H](Cc1ccc(O)cc1)C(=O)N[C@H](C(=O)NCC(=O)O)CSSC[C@H](NC(=O)[C@H](CC(=O)O)NC(=O)[C@H](CO)NC(=O)[C@H](CC(=O)O)NC(=O)[C@H](CCCNC(=N)N)NC(=O)[C@H](CCCNC(=N)N)NC3=O)C(=O)N1CCC[C@H]1C(=O)NCC(=O)N[C@@H](CCCNC(=N)N)C(=O)N2 [MC-FA-012] (H-GACPYSNWTPGRGPDCRRDSDCPGRCICRGNGYCG-OH; disulfide 3-26, 16-28, 22-34; N-terminus and C-terminus assumed)
competition (CHO-K1-huSeprase cells): only a slight competition | binding to the TNBC sections [2]: specific binding
